Record: PubChem BioAssay AID743121 (NCATS, 2013)

- Assay: 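Knock-downs that sensitise breast cancer cells to camptothecin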 (primary screen)
- System: MDA-MB-231 cells, a human breast cancer line
- Knock-down reagent: single siRNA against human genes, 20 nM siRNA (0.8 pmol per well)
- Time to read-out: 120 h (drug added 48 h after transfection, read 72 h later)
- Treatment: camptothecin 20 nM (about EC30) for 72 h; vehicle 0.1% DMSO in parallel plates
- Detection: 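CellTiter-Glo ATP signal, scaled to control siRNA as percent viability; sensitisation given as log2 of untreated divided by camptothecin-treated viability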
- Scale: log2 vehicle/camptothecin viability: higher = stronger sensitisation to camptothecin; viability with camptothecin: higher = more viable cells
- Call rule: 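Active genes have an RSA gene-level p-value below 0.001, computed from the ratios of their separate siRNAs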
Shown is a random part of about 26,000 reagents. Over the whole deposit, 167 (0.63%) are marked active. 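Calls are per gene from RSA p-values that are not deposited; an individual active-marked siRNA can sensitise only weakly.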 Reagents against one gene are numbered here. Further read-outs or replicates are left out here. Reagent sequences are not shown.

PDCD6IP #1 — log2 vehicle/camptothecin viability: 0.0217; viability with camptothecin (% of control): 34.1; outcome: inactive
PDCD6IP #2 — log2 vehicle/camptothecin viability: 0.231; viability with camptothecin (% of control): 80.1; outcome: inactive
PDCD6IP #3 — log2 vehicle/camptothecin viability: 0.332; viability with camptothecin (% of control): 77.2; outcome: inactive
NTN1 #1 — log2 vehicle/camptothecin viability: 0.286; viability with camptothecin (% of control): 46.3; outcome: inactive
NTN1 #2 — log2 vehicle/camptothecin viability: -0.258; viability with camptothecin (% of control): 116; outcome: inactive
NTN1 #3 — log2 vehicle/camptothecin viability: -0.247; viability with camptothecin (% of control): 44.4; outcome: inactive
NTN1 #4 — log2 vehicle/camptothecin viability: -0.612; viability with camptothecin (% of control): 77.5; outcome: inactive
KIF24 #1 — log2 vehicle/camptothecin viability: -0.337; viability with camptothecin (% of control): 110; outcome: inactive
KIF24 #2 — log2 vehicle/camptothecin viability: -0.283; viability with camptothecin (% of control): 83.8; outcome: inactive
KIF24 #3 — log2 vehicle/camptothecin viability: -0.486; viability with camptothecin (% of control): 102; outcome: inactive
REEP5 #1 — log2 vehicle/camptothecin viability: -0.293; viability with camptothecin (% of control): 106; outcome: inactive
REEP5 #2 — log2 vehicle/camptothecin viability: -0.317; viability with camptothecin (% of control): 92; outcome: inactive
REEP5 #3 — log2 vehicle/camptothecin viability: 0.00336; viability with camptothecin (% of control): 74.1; outcome: inactive
REEP5 #4 — log2 vehicle/camptothecin viability: -0.266; viability with camptothecin (% of control): 100; outcome: inactive
MMP2 #1 — log2 vehicle/camptothecin viability: -0.421; viability with camptothecin (% of control): 86.1; outcome: inactive
MMP2 #2 — log2 vehicle/camptothecin viability: -0.121; viability with camptothecin (% of control): 77.6; outcome: inactive
MMP2 #3 — log2 vehicle/camptothecin viability: -0.0552; viability with camptothecin (% of control): 43.4; outcome: inactive
MMP2 #4 — log2 vehicle/camptothecin viability: -0.182; viability with camptothecin (% of control): 102; outcome: inactive
ATP2B3 #1 — log2 vehicle/camptothecin viability: 0.0245; viability with camptothecin (% of control): 89.5; outcome: inactive
ATP2B3 #2 — log2 vehicle/camptothecin viability: 0.0421; viability with camptothecin (% of control): 102; outcome: inactive
ATP2B3 #3 — log2 vehicle/camptothecin viability: -0.483; viability with camptothecin (% of control): 86.8; outcome: inactive
ATP2B3 #4 — log2 vehicle/camptothecin viability: -2.51; viability with camptothecin (% of control): 97.2; outcome: inactive

Laid out differently: entries from further up.
Target gene | siRNA no. | log2 vehicle/camptothecin viability | viability with camptothecin (% of control) | outcome
PDCD6IP | 2 | 0.231 | 80.1 | inactive
PDCD6IP | 3 | 0.332 | 77.2 | inactive
NTN1 | 1 | 0.286 | 46.3 | inactive
NTN1 | 2 | -0.258 | 116 | inactive

The results go on:
TP53RK #1 — log2 vehicle/camptothecin viability: -0.0418; viability with camptothecin (% of control): 92.5; outcome: inactive
TP53RK #2 — log2 vehicle/camptothecin viability: -0.451; viability with camptothecin (% of control): 91; outcome: inactive
TP53RK #3 — log2 vehicle/camptothecin viability: -0.702; viability with camptothecin (% of control): 79.5; outcome: inactive
TP53RK #4 — log2 vehicle/camptothecin viability: -0.209; viability with camptothecin (% of control): 95.2; outcome: inactive
PHKG1 #1 — log2 vehicle/camptothecin viability: -0.119; viability with camptothecin (% of control): 104; outcome: inactive
PHKG1 #2 — log2 vehicle/camptothecin viability: -0.0192; viability with camptothecin (% of control): 93.8; outcome: inactive
PHKG1 #3 — log2 vehicle/camptothecin viability: -0.162; viability with camptothecin (% of control): 91.9; outcome: inactive
PHKG1 #4 — log2 vehicle/camptothecin viability: 0.359; viability with camptothecin (% of control): 33.4; outcome: inactive
RAB39B #1 — log2 vehicle/camptothecin viability: -0.228; viability with camptothecin (% of control): 107; outcome: inactive
RAB39B #2 — log2 vehicle/camptothecin viability: 0.281; viability with camptothecin (% of control): 60.8; outcome: inactive
RAB39B #3 — log2 vehicle/camptothecin viability: -0.615; viability with camptothecin (% of control): 86.7; outcome: inactive
RAB39B #4 — log2 vehicle/camptothecin viability: -0.588; viability with camptothecin (% of control): 31.4; outcome: inactive
GALR2 #1 — log2 vehicle/camptothecin viability: -0.225; viability with camptothecin (% of control): 42.5; outcome: inactive
GALR2 #2 — log2 vehicle/camptothecin viability: 0.00144; viability with camptothecin (% of control): 72.9; outcome: inactive
GALR2 #3 — log2 vehicle/camptothecin viability: -0.304; viability with camptothecin (% of control): 17.1; outcome: inactive
GALR2 #4 — log2 vehicle/camptothecin viability: -0.475; viability with camptothecin (% of control): 94.7; outcome: inactive
